Results on one substance are retold here after paper PMC10112892.

Sequences of proteins named here, by UniProt entry; tags and fusion partners are left off.
UniProt P22061: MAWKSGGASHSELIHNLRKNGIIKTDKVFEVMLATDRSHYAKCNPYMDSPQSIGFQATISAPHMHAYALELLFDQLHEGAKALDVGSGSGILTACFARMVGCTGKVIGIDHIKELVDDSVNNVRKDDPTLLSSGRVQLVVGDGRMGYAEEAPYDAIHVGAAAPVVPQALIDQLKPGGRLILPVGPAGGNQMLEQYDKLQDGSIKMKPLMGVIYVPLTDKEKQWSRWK

No constants are given. Whether binding was seen depends on the method and setting. Binding seen in cells or lysates may run through a third protein. Some results given as binding are weak or reduced against the parent protein; the word gives no strength. Where a sequence is shown, tags or fusion partners need not be part of it.

The target in this test is T1, Flag-TRAF2 (UniProt Q12933).
T1 sequence: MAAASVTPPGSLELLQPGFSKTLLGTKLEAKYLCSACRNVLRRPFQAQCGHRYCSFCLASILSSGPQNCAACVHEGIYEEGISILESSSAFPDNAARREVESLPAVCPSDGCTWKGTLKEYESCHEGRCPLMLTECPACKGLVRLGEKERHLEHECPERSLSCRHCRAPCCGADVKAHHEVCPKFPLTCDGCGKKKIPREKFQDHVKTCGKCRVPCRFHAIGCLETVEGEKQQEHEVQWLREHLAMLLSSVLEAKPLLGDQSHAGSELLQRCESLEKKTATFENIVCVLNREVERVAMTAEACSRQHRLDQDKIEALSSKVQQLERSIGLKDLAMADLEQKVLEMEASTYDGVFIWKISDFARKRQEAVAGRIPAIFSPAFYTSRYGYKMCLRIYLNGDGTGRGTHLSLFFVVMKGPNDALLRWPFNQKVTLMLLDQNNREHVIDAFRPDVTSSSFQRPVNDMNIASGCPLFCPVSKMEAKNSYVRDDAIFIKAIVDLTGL
Nature of the test: co-IP; HEK-293T cells co-transfected with tagged constructs, lysed 48 hr later in IP buffer (20 mM Tris pH 8.0, 137 mM NaCl, 2 mM EDTA, 1% NP-40, 10% glycerol); Anti-FLAG M2 magnetic beads at 4°C overnight; western blot; in Figure 4A and 4G with or without co-expressed Myc-PIMT.

For “Myc-tagged PIMT (protein L-isoaspartyl O-methyltransferase), wild type (from UniProt P22061 1-227) (enzyme)”, the binding result is “binds weakly”.
